Test results from paper PMC8845002.
No constants are given. Whether binding was seen depends on the method and setting. Binding seen in cells or lysates may run through a third protein. Some entries that bind do so weakly or less than the wild type.

Sequences of proteins named here, by UniProt entry; tags and fusion partners are left off.
UniProt P40763: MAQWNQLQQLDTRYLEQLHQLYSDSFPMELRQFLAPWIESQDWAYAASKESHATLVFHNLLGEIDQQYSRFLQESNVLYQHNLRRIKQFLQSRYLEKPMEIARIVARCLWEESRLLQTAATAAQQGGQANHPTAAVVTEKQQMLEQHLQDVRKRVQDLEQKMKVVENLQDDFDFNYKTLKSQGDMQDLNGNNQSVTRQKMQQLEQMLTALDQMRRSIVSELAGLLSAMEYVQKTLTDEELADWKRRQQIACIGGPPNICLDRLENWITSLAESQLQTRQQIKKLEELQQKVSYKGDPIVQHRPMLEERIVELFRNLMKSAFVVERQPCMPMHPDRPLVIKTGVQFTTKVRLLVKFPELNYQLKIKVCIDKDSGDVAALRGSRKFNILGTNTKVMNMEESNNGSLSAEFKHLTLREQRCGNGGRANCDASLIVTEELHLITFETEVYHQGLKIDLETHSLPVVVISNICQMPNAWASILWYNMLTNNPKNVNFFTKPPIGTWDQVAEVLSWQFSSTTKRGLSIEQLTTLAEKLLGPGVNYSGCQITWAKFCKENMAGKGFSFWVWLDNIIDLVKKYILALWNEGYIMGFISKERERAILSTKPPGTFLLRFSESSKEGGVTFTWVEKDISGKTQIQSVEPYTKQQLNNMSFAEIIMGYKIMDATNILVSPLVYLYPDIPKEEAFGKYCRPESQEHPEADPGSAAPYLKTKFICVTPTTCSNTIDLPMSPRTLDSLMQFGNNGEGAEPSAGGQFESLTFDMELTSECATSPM
UniProt Q04695: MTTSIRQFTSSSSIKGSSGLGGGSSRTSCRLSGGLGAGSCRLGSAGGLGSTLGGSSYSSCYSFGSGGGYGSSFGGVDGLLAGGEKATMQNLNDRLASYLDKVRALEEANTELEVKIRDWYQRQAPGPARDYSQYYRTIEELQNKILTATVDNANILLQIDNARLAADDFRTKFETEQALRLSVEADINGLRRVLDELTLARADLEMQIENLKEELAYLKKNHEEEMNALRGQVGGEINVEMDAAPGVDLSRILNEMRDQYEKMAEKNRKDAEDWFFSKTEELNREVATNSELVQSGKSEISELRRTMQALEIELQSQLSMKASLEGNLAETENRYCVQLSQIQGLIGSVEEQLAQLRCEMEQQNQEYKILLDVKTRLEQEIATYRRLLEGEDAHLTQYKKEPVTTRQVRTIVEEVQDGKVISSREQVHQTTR
UniProt Q04206: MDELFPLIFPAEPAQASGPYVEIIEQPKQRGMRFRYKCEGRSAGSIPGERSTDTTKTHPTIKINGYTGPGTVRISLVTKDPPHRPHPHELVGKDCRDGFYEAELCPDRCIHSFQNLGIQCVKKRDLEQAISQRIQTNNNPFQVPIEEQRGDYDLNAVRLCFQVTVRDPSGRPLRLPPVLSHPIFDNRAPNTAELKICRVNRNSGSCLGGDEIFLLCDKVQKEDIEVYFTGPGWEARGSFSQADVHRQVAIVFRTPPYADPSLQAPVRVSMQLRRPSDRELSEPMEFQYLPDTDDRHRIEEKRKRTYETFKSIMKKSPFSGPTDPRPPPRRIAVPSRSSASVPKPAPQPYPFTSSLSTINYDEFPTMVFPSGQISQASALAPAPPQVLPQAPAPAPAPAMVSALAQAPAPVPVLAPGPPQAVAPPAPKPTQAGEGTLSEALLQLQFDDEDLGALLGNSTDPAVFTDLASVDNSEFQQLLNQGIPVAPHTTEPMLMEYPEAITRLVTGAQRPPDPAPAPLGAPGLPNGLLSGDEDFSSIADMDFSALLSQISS

Tests used:
[1] = target: signal transducer and activator of transcription 3 (human (endogenous in HaCaT)) (UniProt P40763); assay: co-IP; whole-cell lysates incubated with anti-STAT3 for 3 h, then Protein A/G PLUS-Agarose at 4°C overnight, four PBS washes, immunoblot; cells with or without leptomycin B (LMB); anti-IgG control
[2] = target: Keratin 17 (human (endogenous in HaCaT)) (UniProt Q04695); assay: co-IP; whole-cell lysates incubated with anti-K17 for 3 h, then Protein A/G PLUS-Agarose at 4°C overnight, four PBS washes, immunoblot; cells with or without leptomycin B (LMB); anti-IgG control

binding [1] | binding [2] | Substance
binds |  | Keratin 17 (from UniProt Q04695 1-432)
 | no binding | p65 (from UniProt Q04206 1-551)
 | binds | signal transducer and activator of transcription 3 (from UniProt P40763 1-770)
